Assay results reported in the supplement of paper PMC8728848.
The other results are listed elsewhere or left out.

Experiments:
Assay in all cases: glycan array binding signal (z-score within array); higher = stronger binding
Settings in all cases: glycan notation: IUPAC condensed, linker removed
[1] = target: GlcNAc(b1-3)Gal(b1-3)GalNAc
In short: (§1)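 Negative Z-scores can be read as non-binding. The Z-score is calculated within each array and then averaged across arrays of one protein sequence at different concentrations or buffers and across linkers. Arrays, 3228 in all, were curated from the Consortium for Functional Glycomics database and kept only where the protein sequence was available.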

[2] = target: GlcNAc(b1-3)Gal(b1-4)Glc
In short: as §1

[3] = target: GlcNAc(b1-3)Gal(b1-4)GlcNAc
In short: as §1

[4] = target: GlcNAc(b1-3)Gal(b1-4)GlcNAc(b1-2)Man(a1-3)[GlcNAc(b1-3)Gal(b1-4)GlcNAc(b1-2)Man(a1-6)]Man(b1-4)GlcNAc(b1-4)GlcNAc
In short: as §1

[5] = target: GlcNAc(b1-3)Gal(b1-4)GlcNAc(b1-2)Man(a1-3)[GlcNAc(b1-3)Gal(b1-4)GlcNAc(b1-2)Man(a1-6)]Man(b1-4)GlcNAc(b1-4)[Fuc(a1-6)]GlcNAc
In short: as §1

[6] = target: GlcNAc(b1-3)Gal(b1-4)GlcNAc(b1-2)[GlcNAc(b1-3)Gal(b1-4)GlcNAc(b1-6)]Man(a1-6)[GlcNAc(b1-3)Gal(b1-4)GlcNAc(b1-2)Man(a1-3)]Man(b1-4)GlcNAc(b1-4)GlcNAc
In short: as §1

[7] = target: GlcNAc(b1-3)Gal(b1-4)GlcNAc(b1-3)Gal(b1-4)GlcNAc
In short: as §1

[8] = target: GlcNAc(b1-3)Gal(b1-4)GlcNAc(b1-3)Gal(b1-4)GlcNAc(b1-2)Man(a1-3)[GlcNAc(b1-3)Gal(b1-4)GlcNAc(b1-3)Gal(b1-4)GlcNAc(b1-2)Man(a1-6)]Man(b1-4)GlcNAc(b1-4)GlcNAc
In short: as §1

[9] = target: GlcNAc(b1-3)Gal(b1-4)GlcNAc(b1-3)Gal(b1-4)GlcNAc(b1-2)Man(a1-3)[GlcNAc(b1-3)Gal(b1-4)GlcNAc(b1-3)Gal(b1-4)GlcNAc(b1-2)Man(a1-6)]Man(b1-4)GlcNAc(b1-4)[Fuc(a1-6)]GlcNAc
In short: as §1

[10] = target: GlcNAc(b1-3)Gal(b1-4)GlcNAc(b1-3)Gal(b1-4)GlcNAc(b1-2)[GlcNAc(b1-3)Gal(b1-4)GlcNAc(b1-3)Gal(b1-4)GlcNAc(b1-6)]Man(a1-6)[GlcNAc(b1-3)Gal(b1-4)GlcNAc(b1-3)Gal(b1-4)GlcNAc(b1-2)Man(a1-3)]Man(b1-4)GlcNAc(b1-4)[Fuc(a1-6)]GlcNAc
In short: as §1

[11] = target: GlcNAc(b1-3)Gal(b1-4)GlcNAc(b1-3)Gal(b1-4)GlcNAc(b1-3)Gal(b1-4)GlcNAc(b1-2)Man(a1-3)[GlcNAc(b1-3)Gal(b1-4)GlcNAc(b1-3)Gal(b1-4)GlcNAc(b1-3)Gal(b1-4)GlcNAc(b1-2)Man(a1-6)]Man(b1-4)GlcNAc(b1-4)GlcNAc
In short: as §1

[12] = target: GlcNAc(b1-3)Gal(b1-4)GlcNAc(b1-3)Gal(b1-4)GlcNAc(b1-3)Gal(b1-4)GlcNAc(b1-2)Man(a1-3)[GlcNAc(b1-3)Gal(b1-4)GlcNAc(b1-3)Gal(b1-4)GlcNAc(b1-3)Gal(b1-4)GlcNAc(b1-2)Man(a1-6)]Man(b1-4)GlcNAc(b1-4)[Fuc(a1-6)]GlcNAc
In short: as §1

[13] = target: GlcNAc(b1-3)Gal(b1-4)GlcNAc(b1-3)Gal(b1-4)GlcNAc(b1-3)Gal(b1-4)GlcNAc(b1-2)[GlcNAc(b1-3)Gal(b1-4)GlcNAc(b1-3)Gal(b1-4)GlcNAc(b1-3)Gal(b1-4)GlcNAc(b1-6)]Man(a1-6)[GlcNAc(b1-3)Gal(b1-4)GlcNAc(b1-3)Gal(b1-4)GlcNAc(b1-3)Gal(b1-4)GlcNAc(b1-2)Man(a1-3)]Man(b1-4)GlcNAc(b1-4)[Fuc(a1-6)]GlcNAc
In short: as §1

[14] = target: GlcNAc(b1-3)Gal(b1-4)GlcNAc(b1-3)Gal(b1-4)GlcNAc(b1-3)Gal(b1-4)GlcNAc(b1-3)Gal(b1-4)GlcNAc(b1-2)Man(a1-3)[GlcNAc(b1-3)Gal(b1-4)GlcNAc(b1-3)Gal(b1-4)GlcNAc(b1-3)Gal(b1-4)GlcNAc(b1-3)Gal(b1-4)GlcNAc(b1-2)Man(a1-6)]Man(b1-4)GlcNAc(b1-4)GlcNAc
In short: as §1

[15] = target: GlcNAc(b1-3)Gal(b1-4)GlcNAc(b1-3)Gal(b1-4)GlcNAc(b1-3)Gal(b1-4)GlcNAc(b1-3)Gal(b1-4)GlcNAc(b1-2)Man(a1-3)[GlcNAc(b1-3)Gal(b1-4)GlcNAc(b1-3)Gal(b1-4)GlcNAc(b1-3)Gal(b1-4)GlcNAc(b1-3)Gal(b1-4)GlcNAc(b1-2)Man(a1-6)]Man(b1-4)GlcNAc(b1-4)[Fuc(a1-6)]GlcNAc
In short: as §1

[16] = target: GlcNAc(b1-3)Gal(b1-4)GlcNAc(b1-3)Gal(b1-4)GlcNAc(b1-3)Gal(b1-4)GlcNAc(b1-3)Gal(b1-4)GlcNAc(b1-2)[GlcNAc(b1-3)Gal(b1-4)GlcNAc(b1-3)Gal(b1-4)GlcNAc(b1-3)Gal(b1-4)GlcNAc(b1-3)Gal(b1-4)GlcNAc(b1-6)]Man(a1-6)[GlcNAc(b1-3)Gal(b1-4)GlcNAc(b1-3)Gal(b1-4)GlcNAc(b1-3)Gal(b1-4)GlcNAc(b1-3)Gal(b1-4)GlcNAc(b1-2)Man(a1-3)]Man(b1-4)GlcNAc(b1-4)[Fuc(a1-6)]GlcNAc
In short: as §1

[17] = target: GlcNAc(b1-3)Gal(b1-4)GlcNAc(b1-3)Gal(b1-4)GlcNAc(b1-3)GalNAc
In short: as §1

[18] = target: GlcNAc(b1-3)Gal(b1-4)GlcNAc(b1-3)GalNAc
In short: as §1

[19] = target: GlcNAc(b1-3)Gal(b1-4)GlcNAc(b1-3)[GlcNAc(b1-3)Gal(b1-4)GlcNAc(b1-3)]GalNAc
In short: as §1

[20] = target: GlcNAc(b1-3)Gal(b1-4)GlcNAc(b1-6)[Gal(b1-3)]GalNAc
In short: as §1

[21] = target: GlcNAc(b1-3)Gal(b1-4)GlcNAc(b1-6)[GlcNAc(b1-3)Gal(b1-3)]GalNAc
In short: as §1

[22] = target: GlcNAc(b1-3)Gal(b1-4)GlcNAc(b1-6)[GlcNAc(b1-3)]Gal(b1-4)GlcNAc
In short: as §1

[23] = target: GlcNAc(b1-3)GalNAc
In short: as §1

[24] = target: GlcNAc(b1-3)Man
In short: as §1

[25] = target: GlcNAc(b1-3)[GlcNAc(b1-4)][GlcNAc(b1-6)]GlcNAc
In short: as §1

[26] = target: GlcNAc(b1-3)[GlcNAc(b1-6)]Gal(b1-4)GlcNAc
In short: as §1

[27] = target: GlcNAc(b1-3)[GlcNAc(b1-6)]GalNAc
In short: as §1

[28] = target: GlcNAc(b1-4)Gal(b1-4)GlcNAc
In short: as §1

[29] = target: GlcNAc(b1-4)GlcNAc
In short: as §1

[30] = target: GlcNAc(b1-4)GlcNAc(b1-4)GlcNAc
In short: as §1

[31] = target: GlcNAc(b1-4)GlcNAc(b1-4)GlcNAc(b1-4)GlcNAc(b1-4)GlcNAc
In short: as §1

[32] = target: GlcNAc(b1-4)GlcNAc(b1-4)GlcNAc(b1-4)GlcNAc(b1-4)GlcNAc(b1-4)GlcNAc
In short: as §1

[33] = target: GlcNAc(b1-4)[GlcNAc(b1-6)]GalNAc
In short: as §1

[34] = target: GlcNAc(b1-6)Gal(b1-4)GlcNAc
In short: as §1

[35] = target: GlcNAc(b1-6)GalNAc
In short: as §1

[36] = target: GlcNAc6S(b1-3)Gal(b1-4)GlcNAc
In short: as §1

[37] = target: Kdn(a2-3)Gal(b1-3)GalNAc
In short: as §1

[38] = target: Kdn(a2-3)Gal(b1-3)GlcNAc
In short: as §1

[39] = target: Kdn(a2-3)Gal(b1-4)Glc
In short: as §1

[40] = target: Kdn(a2-3)Gal(b1-4)GlcNAc
In short: as §1

[41] = target: Kdn(a2-3)Gal(b1-4)[Fuc(a1-3)]GlcNAc
In short: as §1

[42] = target: Kdn(a2-6)Gal(b1-4)GlcNAc
In short: as §1

[43] = target: Man(a1-2)Man(a1-2)Man(a1-3)Man
In short: as §1

[44] = target: Man(a1-2)Man(a1-2)Man(a1-6)[Man(a1-3)]Man
In short: as §1

[45] = target: Man(a1-2)Man(a1-3)Man
In short: as §1

B1: AFL6 (Aspergillus fumigatus), Q4WKJ1 (protein)
chain: MSFHLTAEDIRIEDGHRLVARLRNADGDLQDASIDLNTCLGNDNGHFQWDGVDFSHSAQDVHFAIEGGGQVPVLRAQLANQDGEFQDADVNLSERIENINGEFVFH
- glycan array binding signal (z-score) [1]: -0.517
- glycan array binding signal (z-score) [2]: 0.151
- glycan array binding signal (z-score) [3]: -0.299
- glycan array binding signal (z-score) [4]: 0.395
- glycan array binding signal (z-score) [5]: 1.67
- glycan array binding signal (z-score) [6]: 0.915
- glycan array binding signal (z-score) [7]: -0.698
- glycan array binding signal (z-score) [8]: 1.4
- glycan array binding signal (z-score) [9]: 2.48
- glycan array binding signal (z-score) [10]: 0.798
- glycan array binding signal (z-score) [11]: 0.628
- glycan array binding signal (z-score) [12]: 2.39
- glycan array binding signal (z-score) [13]: -0.301
- glycan array binding signal (z-score) [14]: 1.29
- glycan array binding signal (z-score) [15]: 0.616
- glycan array binding signal (z-score) [16]: 0.786
- glycan array binding signal (z-score) [17]: -0.176
- glycan array binding signal (z-score) [18]: -0.333
- glycan array binding signal (z-score) [19]: 0.588
- glycan array binding signal (z-score) [20]: -0.617
- glycan array binding signal (z-score) [21]: -0.339
- glycan array binding signal (z-score) [22]: -0.637
- glycan array binding signal (z-score) [23]: -0.252
- glycan array binding signal (z-score) [24]: -0.615
- glycan array binding signal (z-score) [25]: -0.371
- glycan array binding signal (z-score) [26]: -0.421
- glycan array binding signal (z-score) [27]: -0.337
- glycan array binding signal (z-score) [28]: -0.294
- glycan array binding signal (z-score) [29]: -0.177
- glycan array binding signal (z-score) [30]: -0.154
- glycan array binding signal (z-score) [31]: -0.087
- glycan array binding signal (z-score) [32]: 0.533
- glycan array binding signal (z-score) [33]: -0.154
- glycan array binding signal (z-score) [34]: -0.225
- glycan array binding signal (z-score) [35]: -0.476
- glycan array binding signal (z-score) [36]: -0.122
- glycan array binding signal (z-score) [37]: 0.106
- glycan array binding signal (z-score) [38]: 0.231
- glycan array binding signal (z-score) [39]: 0.305
- glycan array binding signal (z-score) [40]: 0.251
- glycan array binding signal (z-score) [41]: 0.361
- glycan array binding signal (z-score) [42]: -0.343
- glycan array binding signal (z-score) [43]: -0.027
- glycan array binding signal (z-score) [44]: -0.16
- glycan array binding signal (z-score) [45]: -0.536
